Residue numbers refer to the chain shown, from its start. These are yes or no findings as the source states them, for the method shown. Some results given as binding are weak or reduced against the parent protein; the word gives no strength. Blank lines part the entries; values can stand above or below the binder they belong to.
Molecular target: Dsg2 EC2 recombinant protein (recombinant fusion protein containing the Dsg2 extracellular domain 2) (human) (UniProt Q14126)
Assay: ELISA, plates coated with 1 ug/mL Dsg2 EC2, detection with HRP goat anti-mouse IgG Fc-gamma

The chains behind the UniProt entries cited, without tags or fusion partners. Residues count along the entry.
UniProt Q14126, residues 161-273: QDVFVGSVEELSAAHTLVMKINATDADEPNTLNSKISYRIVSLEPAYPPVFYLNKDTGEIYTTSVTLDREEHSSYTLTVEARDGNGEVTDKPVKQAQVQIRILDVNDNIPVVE

binding: binds
B1: Dsg2 monoclonal antibody 3D4 (antibody, V domains shown)
VH: QIQLVQSGPELKKPGETVKISCKASGYTFTNYGMNWVRQAPGKALKWMVWMNTNTGESIYAEEFKGRFVFSLDTSASTAYLQINNLNNEDTATYFCARYWDTYWGQGTTLTVSS
VL: DIKMTQSPSSMYASLGERVTITCKASQDINSYLSWFQQKPGKSPKTLIYRANRLVDGVPSRFSGSGSGQDFSLTISSLEYEDMGIYYCLQYDEFPYTFGGGTKLEIK
notes: Mouse hybridoma antibody from BALB/c mice, detected with anti-mouse IgG Fc-gamma specific antibody; also called mAb 3D4

binding: binds
B2: Dsg2 monoclonal antibody 13D3 (antibody, V domains shown)
VH: QVQLQQPGAELVKPGASVKLSCKASGYTFTSYYMYWVKQRPGQGLEWIGGINPNNGGTNFNEKFKSKATLTVDKSSSTAYMQLRSLTSEDSAVYYCIRGSGYGNWGQGTLVTVSA
VL: B1 VL with S31G, F71Y
notes: Mouse hybridoma antibody from BALB/c mice, detected with anti-mouse IgG Fc-gamma specific antibody; also called mAb 13D3
